Test results as given in the supplement of paper PMC9254222.
Whole data set: some 1,100 compounds, median “Wnt reporter firefly/Renilla luciferase ratio relative to plate median” near 1.1, cut for the highest 2% near 1.6. This is a selection; strong and weak results do not stand in their true shares.

Test system: HEK293T (UBE3A T485A transfected, BAR Wnt reporter)
Test: Wnt reporter firefly/Renilla luciferase ratio relative to plate median (fold (linear ratio)); higher = more Wnt/beta-catenin reporter activation
Settings: 24 h
How it was run: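 Each value averages four biological replicates in HEK293T cells grown at 4500 cells/well in DMEM with 10% FBS at 37°C and 5% CO2. The cells were transfected with a BAR firefly luciferase Wnt reporter, TK-Renilla and an expression plasmid, then four hours later robotically treated with the chemicals at 0.01–100 uM for 24 h. Dual-Glo luciferase signals were median-centred per plate, with the firefly/Renilla ratio reported as Wnt activity and raw Renilla as cell health.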

SMILES | Wnt reporter firefly/Renilla luciferase ratio (concentration: 0.1 uM) | Wnt reporter firefly/Renilla luciferase ratio (concentration: 1 uM) | Wnt reporter firefly/Renilla luciferase ratio (concentration: 10 uM) | Wnt reporter firefly/Renilla luciferase ratio (concentration: 100 uM) | Wnt reporter firefly/Renilla luciferase ratio (concentration: 0.01 uM)
O=c1n(CC2CO2)c(=O)n(CC2CO2)c(=O)n1CC1CO1 (stereo not given) [Triglycidyl isocyanurate] | 0.824 | 0.831 | 0.784 |  | 
CN(C)CCOC(c1ccccc1)c1ccccc1.Cl [Diphenhydramine hydrochloride] | 0.983 | 0.773 | 1.04 | 0.49 | 
Clc1ccccc1C(c1ccccc1)(c1ccccc1)n1ccnc1 [Clotrimazole] | 1.06 | 1.01 | 0.928 | 1.34 | 
CCN(Cc1cccnc1)C(=O)c1cccc(Cl)c1[C@]1(C)C(=O)N(Cc2ccc(OC)cc2OC)c2ccc(Cl)cc21.Cl | 0.938 | 0.858 | 0.412 |  | 
O=C(O)Cc1cc(I)c(Oc2ccc(O)c(I)c2)c(I)c1 [Tiratricol] | 1.21 | 0.759 | 0.202 | 0.201 | 
CCOC(=O)C(C)Oc1ccc(Oc2nc3ccc(Cl)cc3o2)cc1 (stereo not given) [Fenoxaprop-ethyl] | 1.37 | 0.888 | 0.884 | 0.813 | 1.14
O=C(O)c1cccc(C[C@@H]2COc3ccc(OCc4nc5cc(F)ccc5s4)cc3[C@@H]2O)c1 | 0.972 | 1.2 | 1.07 | 1.47 | 
CC(=O)NC1(c2cccc(F)c2)CCN(CC[C@@]2(c3ccc(Cl)c(Cl)c3)CN(c3ccccc3)C(=O)CO2)CC1.O=C(O)CCC(=O)O | 1.1 | 0.864 | 0.665 |  | 
Cc1oc(-c2ccccc2)nc1CCOc1ccc(C[C@H](Nc2ccccc2C(=O)c2ccccc2)C(=O)O)cc1 [Farglitazar] | 1.36 | 1.48 | 0.991 | 1.19 | 
Cc1ccc2ncccc2c1 [6-Methylquinoline] | 0.931 | 0.836 | 1.29 | 1.81 | 
CCCCCCCCCCCCN1CCCC1=O [1-Dodecyl-2-pyrrolidinone] | 1.09 | 1.14 | 1.19 | 1.13 | 
CCCCN(CCCC)CCCC [Tributylamine] | 0.962 | 0.958 | 0.941 | 1.08 | 
C[C@](N)(Cc1ccc(O)c(O)c1)C(=O)O.C[C@](N)(Cc1ccc(O)c(O)c1)C(=O)O.O.O.O [Methyldopa sesquihydrate] | 1.33 | 0.914 | 0.891 | 1.05 | 
CCN(CC)CCOc1ccc(C(=C(Cl)c2ccccc2)c2ccccc2)cc1.O=C(O)CC(O)(CC(=O)O)C(=O)O [Clomiphene citrate (1:1)] | 0.955 | 0.989 | 1.08 | 1.12 | 
CCCOC(=O)NCCCN(C)C.Cl [Propamocarb hydrochloride] | 1.07 | 0.962 | 0.884 | 1.11 | 0.767
CC(=O)O.COCCOc1cc2cc(C(=O)NC3CCN(C(C)C)CC3)n(CC(=O)Nc3ccc(Cl)cn3)c2cn1 | 0.74 | 0.724 | 1.15 | 0.297 | 
CNC(CC(=O)O)C(=O)O (stereo not given) | 0.981 | 1.17 | 0.957 | 1.4 | 0.99
O=C(O)c1ccc([N+](=O)[O-])cc1 [4-Nitrobenzoic acid] | 1.36 | 1.16 | 1.28 | 1.31 | 
Cc1cccc(Nc2cc(Cl)nc(SCC(=O)O)n2)c1C [Pirinixic acid] | 1.28 | 1.09 | 1.16 | 1.17 | 
CC(=O)c1ccccc1 [Acetophenone] | 1.48 | 1.03 | 1.27 | 1.46 | 
O=[N+]([O-])c1ccc(O)cc1 [4-Nitrophenol] | 1.19 | 0.935 | 1.31 | 0.927 | 
Cc1ccc(C)c(O)c1 [2,5-Dimethylphenol] | 0.904 | 0.928 | 1.07 | 1.26 | 
Cc1[nH]cnc1C[C@H]1CCc2c(C)c3ccccc3n2C1=O.Cl [Fabesetron hydrochloride] | 0.929 | 1 | 0.724 |  | 
C#CC(O)C(CC)CCCC (stereo not given) [4-Ethyloct-1-yn-3-ol] | 1.08 | 1.04 | 1.02 | 1.11 | 
OC1CCCCC1 [Cyclohexanol] | 1.31 | 1.03 | 1.07 | 1.36 | 
CCCCC(CC)CN1C(=O)C2C3C=CC(C3)C2C1=O (stereo not given) | 0.836 | 0.924 | 1.23 | 0.306 | 1.46
Nc1ccc(S(=O)(=O)c2ccc(N)cc2)cc1 [Dapsone] | 1.22 | 1.05 | 0.993 | 0.868 | 
c1ccc2occc2c1 [2,3-Benzofuran] | 1.25 | 1.35 | 1.18 | 1.11 | 
CN(C)[C@@H]1C(O)=C(C(N)=O)C(=O)[C@@]2(O)C(O)=C3C(=O)c4c(O)cccc4[C@@](C)(O)[C@H]3[C@H](O)[C@@H]12.Cl [Oxytetracycline hydrochloride] | 1.09 | 1.03 | 0.562 | 0.0778 | 
CC(C)OC(=O)C(C)(C)Oc1ccc(C(=O)c2ccc(Cl)cc2)cc1 [Fenofibrate] | 1.17 | 1.18 | 1.21 | 1.27 | 

Structures above that contain fluorine:
SMILES | Wnt reporter firefly/Renilla luciferase ratio (concentration: 0.1 uM) | Wnt reporter firefly/Renilla luciferase ratio (concentration: 1 uM) | Wnt reporter firefly/Renilla luciferase ratio (concentration: 10 uM) | Wnt reporter firefly/Renilla luciferase ratio (concentration: 100 uM) | Wnt reporter firefly/Renilla luciferase ratio (concentration: 0.01 uM)
O=C(O)c1cccc(C[C@@H]2COc3ccc(OCc4nc5cc(F)ccc5s4)cc3[C@@H]2O)c1 | 0.972 | 1.2 | 1.07 | 1.47 | 
CC(=O)NC1(c2cccc(F)c2)CCN(CC[C@@]2(c3ccc(Cl)c(Cl)c3)CN(c3ccccc3)C(=O)CO2)CC1.O=C(O)CCC(=O)O | 1.1 | 0.864 | 0.665 |  | 
